# At least one compound was matched to its structure with a doubt left.
# Key:
# UCP1 [1] = biological target: T1, UCP1 (Rattus norvegicus, UniProt P04633); assay: Respiration rate from oxygen consumption (oxygen electrode), mitochondria that express UCP1; type: biochemical; settings: palmitate 48 μM
# T1 construct: made in house; host or cells: Saccharomyces cerevisiae W303, vector pYeDP-UCP (gal-cyc promoter); isolated mitochondria
# T1 sequence (P04633 1-307): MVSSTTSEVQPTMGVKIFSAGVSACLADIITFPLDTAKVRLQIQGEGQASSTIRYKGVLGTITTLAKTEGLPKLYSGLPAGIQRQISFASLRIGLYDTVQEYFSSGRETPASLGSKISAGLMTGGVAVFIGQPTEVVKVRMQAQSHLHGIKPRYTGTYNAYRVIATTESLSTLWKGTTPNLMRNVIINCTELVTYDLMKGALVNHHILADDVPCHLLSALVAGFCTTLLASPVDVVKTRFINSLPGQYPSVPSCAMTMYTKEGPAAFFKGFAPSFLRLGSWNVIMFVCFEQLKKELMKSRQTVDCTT
# Description: (§1) To isolate the mitochondria required for the subsequent experiments, yeasts of the strain Saccharomyces cerevisiae W303 that express UCP1 were inoculated into SP growth medium (0.67% nitrogen substrate, 0.1% casamino acids, 20 mg/ml tryptophan, 40 mg/ml adenine, 0.1% phosphate, 0.12% ammonium sulphate, 0.1% glucose, 2% lactic acid, pH 4.5) 36 hours before extraction of the mitochondria; 12 or 14 hours before extraction they were diluted in SG medium (0.67% nitrogen substrate, 0.1% casamino acids, 20 mg/ml tryptophan, 40 mg/ml adenine, 2% galactose pH 4.5) adjusting the optical density at 600 nm to between 0.3-0.4 absorbance units [Arechaga I, Raimbault S. et al., (1993) Cysteine residues are not essential for uncoupling protein function. Biochem. J. 296. 693-700].
# The mitochondria were prepared following a procedure based on that of Guerin et al., [Guerin B, Labbe P. Somlo M (1979) Preparation of yeast mitochondria (Saccharomyces cerevisiae) with good P/O and respiratory ratios Methods Enzymol. 55: 149-159]. The protoplasts are prepared by enzymatic digestion of the cell wall with cytohelicase and after their homogenization mitochondria are isolated by differential centrifugation [Arechaga I., Raimbault S. et al., (1993) Cysteine residues are not essential for uncoupling protein function. Biochem. J. 296. 693-700]. […]
# UCP1 [2] = biological target: T1, UCP1; assay: Respiration rate by monitoring NADH fluorescence (NADH consumption), mitochondria that express UCP1; type: biochemical; settings: GDP 3 mM, palmitate 48 μM; for NADH consumption: UCP1 mitochondria of S. cerevisiae, FCCP 10 μM (uncoupled respiration), basal 223
# Description: as §1
# The mitochondria were prepared following a procedure based on that of Guerin et al., [Guerin B, Labbe P. Somlo M (1979) Preparation of yeast mitochondria (Saccharomyces cerevisiae) with good P/O and respiratory ratios Methods Enzymol. 55: 149-159]. […]
# The second method, which is the object of the present invention, is based on determining the respiration rate by measuring the consumption of NAD(P)H. All the assays were performed on a 96-well micro-titre standardized plate (Nunc., Denmark). […] Fluorescence measurements were done using a POLAR star Galaxy plate reader (BMG Laboratories OmbH, Offenburg, Germany). […] Changes in the fluorescence signal were determined every 30 seconds in each well with an average of 6-9 readings for each measurement. […] For the experiments shown in FIGS. 1, 3 and 4 measurements are done in triplicate (3 wells of the plate with the same conditions) and averages were taken of the reduced fluorescence measurements. From these values, fluorescence values for the suspension of mitochondria in the absence of NADH (blank) were subtracted.
# Conversion of fluorescence values to NADH concentrations (after calculating the average of the values in triplicate and subtracting the blank value) is done by first titrating the fluorescence intensity against increasing concentrations of NADH. […]
smiles,measurement,setting,value
CCCCCCCCCCCCCCCC(=O)O [Palmitate],Oxygen consumption,"UCP1 [1]; UCP1 mitochondria of S. cerevisiae, GDP 3 mM, FCCP 10 μM (uncoupled respiration), basal 218",337 nmoles of oxygen consumed per minute and per mg of protein
same,"Respiration rate by oxygen consumption, UCP1 mitochondria compared with Control mitochondria (in words)",UCP1 [1]; FCCP 10 μM,stimulates the respiration more in UCP1 mitochondria than in Control mitochondria
same,NADH consumption,UCP1 [2],349 nmoles of NADH consumed per minute and per mg of protein
same,NADH consumption,UCP1 [2]; listed as palmitate,349 nmoles of NADH consumed per mi
same,Change in rate of NADH consumption compared to basal levels (in words),UCP1 [2]; UCP1 mitochondria,increases the rate of NADH consumption
